Measured values reported in US6900195B2, “Manzamines for treatment of drug resistant infection” (The University of Mississippi, priority 2000, dated 2005).
At least one structure is not confirmed: it was looked up by name or label, or the drawing left a doubt. Some entries share one result that the patent states for a list of compounds.

System: P. berghei
Test: In vivo antimalarial activity in P. berghei-infected mice
Parameters: species or system Plasmodium berghei
Procedure: In Vivo Evaluation of Antimalarial Activity. (National University of Singapore by Dr. Kenny Ang, confirmation of activity at the WHO). Four-week-old, male Swiss albino mice are injected intraperitoneally with 10^7 P. berghei-infected mouse erythrocytes. On day 2 after infection, mice are treated with a single intraperitoneal injection of either the test compound or a reference drug (chloroquine or artemisinin) within a concentration range of 50 to 1,000 μmol/kg of body weight. All test compounds and reference drugs were injected as a suspension in 5% Tween 60 saline. For oral administration, the test compounds are given as a suspension in corn oil, and mice are given two consecutive doses of test compound at 100 μmol/kg on days 2 and 3 after infection. […] Control mice receive only 5% Tween 60 saline or corn oil. Survival of mice was recorded daily. Percent parasitemia is determined microscopically (magnification, ×1,000) from mouse-tail blood smears that were fixed with methanol and stained with Giemsa stain. Blood samples from individual P. berghei-infected mice were collected at various times after a single intraperitoneal treatment of 100 μmol/kg of manzamine A per kg on day 3 after infection. For transmission electron microscopy, approximately 0.5-ml blood samples are fixed with 3% glutaraldehyde in 0.1 M cacodylate buffer (pH 7.4), postfixed with 1% osmium tetroxide and 1% uranyl acetate, dehydrated in a graded ethanol series, and embedded in Spurr's resin. The resulting blocks are cut by using a Reichert-Jung Ultracut with a glass knife. Ultra thin sections were mounted on 150-mesh copper grids, stained with 1% uranyl acetate and 1% lead citrate, and examined with a JEM-100CX electron microscope. Manzamine in plasma was detected by liquid chromatography=selected reaction monitoring-mass spectrometry (LC-SRM-MS). P. berghei-infected mice will be treated with the alkaloid (100 μmol/kg intraperitoneally) on day 3 post infection. Blood samples are collected from individual mice at specific times up to 48 h posttreatment. Plasma was isolated by centrifugation and extracted with 95% acetonitrile containing 5 mM ammonium acetate. The plasma extract was filtered, and 5 μl samples are injected into a Shimadzu LC-10 AD microbore high-pressure liquid chromatograph interfaced with a Perkin-Elmer API 300 turbo-ion-spray tandem mass spectrometer. […] Manzamine can be detected by monitoring the transition of the protonated manzamine precursor ion from the (M+H)^+ to the (M+H —H2O)^+. Peak areas for the product ion chromatograms are integrated, and concentrations are determined from a linear calibration curve for manzamine in spiked plasma. […]

Row | SMILES | reduction of parasitemia (P. berghei-infected mice, single i.p. 100 μmoles/kg, comparison 2 days after treatment) | activity in vivo against malaria (mice) | in vivo activity against P. berghei relative to chloroquine or artemisinin (mice) | life expectancy (P. berghei-infected mice, same dosage (single 100 μmoles/kg))
1 | O[C@@H]1CCCN2CC[C@@H]1O[C@@]13CC[C@@H](OC[C@]45CN6CCCC/C=C\CC[C@](O)(C=C(c7nccc8c7[nH]c7ccccc78)[C@@H]4CC6)[C@H]25)[C@@H](O)CCN1[C@@H]1[C@]2(CN4CCCC/C=C\CC[C@]1(O)C=C(c1nccc5c1[nH]c1ccccc15)[C@@H]2CC4)C3 [neo-Kauluamine, neo-kauluamine] | comparable reduction of parasitemia | comparable with manzamine A and ent-8-hydroxy manzamine A | in vivo activity against P. berghei greater than chloroquine or artemisinin | –
2 | C[C@@H]1CC[C@H]2[C@@H](C)C(=O)O[C@@H]3O[C@@]4(C)CC[C@@H]1[C@]32OO4 [Artemisinin, artemisinin, reference compound] | – | – | – | 2 to 6 days
